Laboratory results published in patent publication US6291449A, “Use of 11-phenyl-dibenzazepine compounds to treat diarrhea or scours” (Children's Medical Center Corporation, priority 1998, dated 2001).
Like-named read-outs stand apart in the source and are kept apart here.

Tested on: T84 cells
Assay: Electrogenic Cl- secretion (short circuit current) in intact T84 monolayers
Type: cell-based
Settings: Homo sapiens

## Clc1ccccc1C(c1ccccc1)(c1ccccc1)n1ccnc1 [clotrimazole]
T84, read-out: IC50, inhibition of secretory response to cAMP
  IC50: 8 µM
T84, read-out: IC50, inhibition of secretory response to carbachol
  IC50: 3 µM
T84, read-out: IC50, inhibition of secretory response to cholera toxin
  IC50: 10 µM
